Data: PubChem BioAssay (NCATS)
The inconclusive results got no clear call from the source; some entries with a clear call stand among them for comparison. A potency beside an inconclusive call is a rough fit, not a confirmed value. The source made the active and inactive calls. The call rests on the fitted dose curve; in most records, active means well fitted cell-killing curve with a large enough effect; inconclusive means small, poorly fitted or top-dose-only effect, or effect the other way; inactive means no such curve, though single readings can be large or run the other way.

How the values were obtained:
[1] = Quantitative High-Throughput drug screen in 47 multiple myeloma cell lines against the NCATS MIPE library collection: FR4_PLB cell viability assay (AID 1918924; further: nearly all actives have a fitted effect of over 35% in size); conditions: FR4_PLB myeloma cells viability, CellTiter-Glo ATP, 48 h; series mostly up to 45.8 µM
In short: (§1)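 Luminescent ATP measurement with CellTiter-Glo gives viability, scaled between DMSO-only wells (100%) and media-only wells (0%). Cells, 500 per well, faced library compounds for 48 hours at 37C.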

[2] = Quantitative High-Throughput drug screen in 47 multiple myeloma cell lines against the NCATS MIPE library collection: Delta47_JCRB cell viability assay (AID 1918925; further: nearly all actives have a fitted effect of over 45% in size); conditions: Delta47 myeloma viability, CellTiter-Glo ATP, 48 h; viability (% of DMSO): at 45.8 µM (top of the series) unless noted
In short: as §1

[3] = Quantitative High-Throughput drug screen in 47 multiple myeloma cell lines against the NCATS MIPE library collection: AMO1_DSMZ cell viability assay (AID 1918927; further: nearly all actives have a fitted effect of over 30% in size)
In short: as §1

[4] = Quantitative High-Throughput drug screen in 47 multiple myeloma cell lines against the NCATS MIPE library collection: ARP1_JJKsccF8 cell viability assay (AID 1918928; further: nearly all actives have a fitted effect of over 40% in size); conditions: ARP1 myeloma cells viability, CellTiter-Glo ATP, 48 h; viability: at 45.8 µM (top of the series)
In short: (§2)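 Myeloma cells, 500 per well, were exposed to MIPE 4.0 drugs by pin transfer for 48 h at 37 °C, 5% CO2. Viability was read as ATP luminescence with CellTiter-Glo, normalised to DMSO-only (100%) and medium-only (0%) wells.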

[5] = Quantitative High-Throughput drug screen in 47 multiple myeloma cell lines against the NCATS MIPE library collection: ARD_JJKsccE7 cell viability assay (AID 1918929)
In short: as §1

[6] = Quantitative High-Throughput drug screen in 47 multiple myeloma cell lines against the NCATS MIPE library collection: Karpas620_DSMZ cell viability assay (AID 1918959); further: nearly all actives have a fitted effect of over 30% in size
In short: as §1

[7] = Quantitative High-Throughput drug screen in 47 multiple myeloma cell lines against the NCATS MIPE library collection: KMM1_JCRB cell viability assay (AID 1918960); conditions: KMM1 myeloma viability, CellTiter-Glo ATP luminescence, 48 h; viability (% of DMSO): at 45.8 µM (top of the series); further: nearly all actives have a fitted effect of over 30% in size
In short: as §2

[8] = Quantitative High-Throughput drug screen in 47 multiple myeloma cell lines against the NCATS MIPE library collection: Karpas417_ECACC cell viability assay (AID 1918961); conditions: Karpas417 myeloma viability, CellTiter-Glo ATP luminescence, 48 h; viability (% of DMSO): at 45.8 µM (top of the series) unless noted
In short: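 Steps: seed 500 cells per well; pin-transfer MIPE 4.0 library; incubate 48 h at 37C, 5% CO2, humidified; add CellTiter-Glo, 5 min room temperature; read luminescence.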

[9] = Quantitative High-Throughput drug screen in 47 multiple myeloma cell lines against the NCATS MIPE library collection: KHM11_PLB cell viability assay (AID 1918962); conditions: KHM11 myeloma cell viability, CellTiter-Glo ATP luminescence, 48 h; series mostly up to 45.8 µM; further: nearly all actives have a fitted effect of over 35% in size
In short: as §1

[10] = Quantitative High-Throughput drug screen in 47 multiple myeloma cell lines against the NCATS MIPE library collection: EJM_DSMZ cell viability assay (AID 1918926; further: nearly all actives have a fitted effect of over 30% in size); conditions: EJM myeloma cell viability, CellTiter-Glo ATP, 48 h; series mostly up to 45.8 µM
In short: as §1

Measured: Potency
Potency means the concentration at half of the fitted maximal effect.

CC(=O)OCC(=O)[C@@]1(O)CC[C@H]2[C@@H]3CCC4=CC(=O)C=C[C@]4(C)[C@@H]3[C@@H](O)C[C@@]21C
inconclusive: [1] 0.0264 µM [cytotoxic, full curve, poor fit] | [3] 2350 nM [cytotoxic, full curve, poor fit] | [4] 93.5 nM [cytotoxic, full curve] | [5] 59 nM [cytotoxic, full curve, poor fit] | [6] 37.2 µM [cytotoxic, partial curve, poor fit] | [9] 3.72 µM [cytotoxic, partial curve, poor fit]
inactive: [2] | [7] | [8]

c1ccc(-c2nn3c(c2-c2ccnc4cc(OCCN5CCOCC5)ccc24)CCC3)nc1
inactive: [10] | [7]
inconclusive: [1] 8.33 µM [cytotoxic, partial curve] | [2] 11.8 µM [cytotoxic, partial curve, poor fit] | [3] 13.2 nM [cytotoxic, full curve, poor fit] | [4] 29600 nM [cytotoxic, single point] | [8] 11.8 µM [rising, full curve] | [9] 0.526 µM [cytotoxic, full curve, poor fit]

Cc1nc2n(c(=O)c1CCN1CCC(c3noc4cc(F)ccc34)CC1)CCCC2
inactive: [1] | [10] | [4] | [5] | [8] | [9]
inconclusive: [2] 0.0021 µM [rising, full curve, poor fit]

CN(C)C(=N)N=C(N)N
inconclusive: [4] 3 nM [cytotoxic, full curve, poor fit] | [6] 0.418 µM [cytotoxic, partial curve, poor fit] | [8] 33.2 µM [rising, partial curve, poor fit] | [9] 20.9 µM [cytotoxic, single point]
inactive: [1] | [2] | [10] | [5]

NC(=O)[C@@H](CCC(F)(F)F)N(Cc1ccc(-c2ncon2)cc1F)S(=O)(=O)c1ccc(Cl)cc1
active: [1] 16.6 µM | [10] 20.9 µM
inconclusive: [2] 14.8 µM [cytotoxic, partial curve] | [7] 5.9 µM [cytotoxic, partial curve, poor fit] | [8] 23.5 µM [rising, partial curve, poor fit]
inactive: [3] | [6] | [9]

CCCCC(C=O)NC(=O)C(CC(C)C)NC(=O)OCc1ccccc1 (configuration not stated)
inconclusive: [1] 23.5 µM [cytotoxic, partial curve] | [2] 20.9 µM [cytotoxic, partial curve, poor fit] | [10] 16.6 µM [cytotoxic, partial curve, poor fit] | [8] 20.9 µM [rising, partial curve, poor fit]

Clc1ccc(C(Cn2ccnc2)OCc2c(Cl)cccc2Cl)c(Cl)c1 (configuration not stated)
active: [8] 16.6 µM
inconclusive: [1] 37.2 µM [cytotoxic, single point] | [2] 33.2 µM [cytotoxic, single point] | [10] 37.2 µM [cytotoxic, single point] | [9] 37.2 µM [cytotoxic, single point]

CC[C@H]1OC(=O)[C@H](C)C(=O)[C@H](C)[C@@H](O[C@H]2O[C@H](C)C[C@H](N(C)C)[C@@H]2O)[C@](C)(OC)C[C@@H](C)C(=O)[C@H](C)[C@H]2N(CCCCn3cnc(-c4cccnc4)c3)C(=O)O[C@]12C
inactive: [3] | [9]
inconclusive: [1] 33.2 µM [cytotoxic, single point] | [2] 37.2 µM [cytotoxic, single point] | [10] 20.9 µM [cytotoxic, partial curve] | [8] 13.2 µM [rising, partial curve, poor fit]

O=C(NCc1ccncc1)C12C[C@H]3C[C@@H](C1)CC(c1ccc(Cl)cc1)(C3)C2
active: [1] 14.8 µM | [2] 16.6 µM
inactive: [9]
inconclusive: [10] 13.2 µM [cytotoxic, partial curve, poor fit] | [4] 20900 nM [cytotoxic, partial curve, poor fit] | [8] 26.4 µM [cytotoxic, partial curve, poor fit]

O=c1[nH]c(=O)n([C@H]2C[C@@H](O)[C@@H](CO)O2)cc1I
inconclusive: [3] 1180 nM [cytotoxic, full curve] | [7] 0.0012 µM [rising, full curve, poor fit] | [9] 0.001 µM
inactive: [1] | [2] | [10] | [4] | [8]

CC(C)C[C@H](CC(=O)O)C(=O)N[C@@H](Cc1c[nH]c2ccccc12)C(=O)N[C@@H](C)c1ccccc1
inconclusive: [1] 0.935 µM [rising, full curve, poor fit] | [2] 16.6 µM [cytotoxic, partial curve, poor fit] | [5] 13200 nM [rising, partial curve] | [8] 8.33 µM [rising, partial curve]
inactive: [10] | [9]

CCC(=O)OCC(=O)[C@@]1(OC(=O)CC)[C@@H](C)C[C@@H]2[C@H]3CCC4=CC(=O)C=C[C@]4(C)[C@@]3(F)[C@@H](O)C[C@@]21C
inconclusive: [1] 23.5 µM [cytotoxic, single point] | [10] 20.9 µM [cytotoxic, single point] | [4] 10.5 nM [cytotoxic, full curve] | [7] 0.469 µM [cytotoxic, full curve]
active: [8] 0.0935 µM
inactive: [2] | [9]

Reprinted at random: 2 compounds from above.
O=c1[nH]c(=O)n([C@H]2C[C@@H](O)[C@@H](CO)O2)cc1I
inconclusive: [3] 1180 nM [cytotoxic, full curve] | [7] 0.0012 µM [rising, full curve, poor fit] | [9] 0.001 µM
inactive: [1] | [2] | [10] | [4] | [8]

Cc1nc2n(c(=O)c1CCN1CCC(c3noc4cc(F)ccc34)CC1)CCCC2
inactive: [1] | [10] | [4] | [5] | [8] | [9]
inconclusive: [2] 0.0021 µM [rising, full curve, poor fit]

Additional results

CC1(C)[C@H](O[C@H]2O[C@H](C(=O)O)[C@@H](O)[C@H](O)[C@H]2O[C@@H]2O[C@H](C(=O)O)[C@@H](O)[C@H](O)[C@H]2O)CC[C@@]2(C)[C@H]1CC[C@]1(C)[C@H]2C(=O)C=C2[C@H]3C[C@@](C)(C(=O)O)CC[C@]3(C)CC[C@]21C
inactive: [2] | [8]
inconclusive: [1] 23.5 µM [rising, partial curve, poor fit] | [10] 0.0015 µM [cytotoxic, full curve, poor fit] | [5] 1.2 nM [cytotoxic, full curve, poor fit]

Cc1cccc(-c2[nH]c(C(C)(C)C)nc2-c2ccc3nccnc3c2)n1
inconclusive: [1] 37.2 µM [cytotoxic, single point] | [10] 16.6 µM [cytotoxic, partial curve, poor fit] | [5] 2640 nM [cytotoxic, partial curve, poor fit] | [8] 29.6 µM [rising, partial curve, poor fit] | [9] 3.32 µM [cytotoxic, full curve, poor fit]
active: [2] 3.32 µM | [6] 6.62 µM | [7] 4.69 µM

COC1CCC(N(C(=O)C2CCC(C)CC2)c2cc(C3=CCCCC3)sc2C(=O)O)CC1 (configuration not stated)
inconclusive: [1] 37.2 µM [cytotoxic, single point] | [2] 33.2 µM [cytotoxic, single point] | [10] 20.9 µM [cytotoxic, partial curve, poor fit] | [3] 935 nM [cytotoxic, full curve, poor fit] | [4] 8.3 nM [rising, full curve, poor fit] | [8] 37.2 µM [rising, partial curve, poor fit] | [9] 37.2 µM [cytotoxic, single point]

CCCCc1ccc(NS(=O)(=O)c2ccc(C)c(C(=O)N3CCN(c4cccc(C)c4C)CC3)c2)cc1
inactive: [7]
inconclusive: [1] 26.4 µM [cytotoxic, single point] | [2] 14.8 µM [cytotoxic, partial curve, poor fit] | [10] 23.5 µM [cytotoxic, single point] | [8] 11.8 µM [rising, single point] | [9] 20.9 µM [cytotoxic, partial curve, poor fit]

CC(=O)OC1C(C)OC(Oc2c(-c3ccc(O)cc3)oc3cc(O)cc(O)c3c2=O)C(O)C1OC(C)=O (configuration not stated)
inconclusive: [1] 1.87 µM [cytotoxic, partial curve, poor fit] | [2] 0.0187 µM [cytotoxic, full curve, poor fit] | [10] 3.32 µM [cytotoxic, partial curve, poor fit] | [3] 469 nM [cytotoxic, partial curve, poor fit] | [5] 935 nM [cytotoxic, partial curve, poor fit] | [6] 10.5 µM [cytotoxic, single point] | [7] 11.8 µM [cytotoxic, single point] | [8] 37.2 µM [rising, partial curve, poor fit]
inactive: [9]
